This is an account of results in the supplement of paper PMC7666118.

Chains of the proteins cited; added tags and fusions are not shown. Lines headed by an entry give the natural chain unless they say otherwise; changes in a name come on top.
UniProt P08962, whole entry: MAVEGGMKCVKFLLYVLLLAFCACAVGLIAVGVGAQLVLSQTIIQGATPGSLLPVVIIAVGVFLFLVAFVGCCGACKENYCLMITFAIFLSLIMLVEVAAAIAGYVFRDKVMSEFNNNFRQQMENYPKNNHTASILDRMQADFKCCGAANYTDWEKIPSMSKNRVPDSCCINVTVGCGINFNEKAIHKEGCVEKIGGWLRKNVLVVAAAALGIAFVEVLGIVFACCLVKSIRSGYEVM
UniProt O14757: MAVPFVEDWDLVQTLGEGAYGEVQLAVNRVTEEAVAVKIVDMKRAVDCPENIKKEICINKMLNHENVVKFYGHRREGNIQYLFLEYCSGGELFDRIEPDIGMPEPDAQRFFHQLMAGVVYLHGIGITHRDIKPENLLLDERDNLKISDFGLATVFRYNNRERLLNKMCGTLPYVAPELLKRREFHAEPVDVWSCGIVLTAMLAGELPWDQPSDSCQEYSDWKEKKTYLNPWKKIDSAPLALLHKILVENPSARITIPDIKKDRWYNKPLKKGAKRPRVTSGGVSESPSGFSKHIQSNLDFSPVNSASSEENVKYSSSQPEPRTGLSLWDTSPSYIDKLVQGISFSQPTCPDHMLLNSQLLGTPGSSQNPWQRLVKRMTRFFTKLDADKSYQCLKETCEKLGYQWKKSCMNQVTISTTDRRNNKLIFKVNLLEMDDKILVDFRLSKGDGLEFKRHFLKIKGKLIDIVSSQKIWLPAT
UniProt Q96RK0: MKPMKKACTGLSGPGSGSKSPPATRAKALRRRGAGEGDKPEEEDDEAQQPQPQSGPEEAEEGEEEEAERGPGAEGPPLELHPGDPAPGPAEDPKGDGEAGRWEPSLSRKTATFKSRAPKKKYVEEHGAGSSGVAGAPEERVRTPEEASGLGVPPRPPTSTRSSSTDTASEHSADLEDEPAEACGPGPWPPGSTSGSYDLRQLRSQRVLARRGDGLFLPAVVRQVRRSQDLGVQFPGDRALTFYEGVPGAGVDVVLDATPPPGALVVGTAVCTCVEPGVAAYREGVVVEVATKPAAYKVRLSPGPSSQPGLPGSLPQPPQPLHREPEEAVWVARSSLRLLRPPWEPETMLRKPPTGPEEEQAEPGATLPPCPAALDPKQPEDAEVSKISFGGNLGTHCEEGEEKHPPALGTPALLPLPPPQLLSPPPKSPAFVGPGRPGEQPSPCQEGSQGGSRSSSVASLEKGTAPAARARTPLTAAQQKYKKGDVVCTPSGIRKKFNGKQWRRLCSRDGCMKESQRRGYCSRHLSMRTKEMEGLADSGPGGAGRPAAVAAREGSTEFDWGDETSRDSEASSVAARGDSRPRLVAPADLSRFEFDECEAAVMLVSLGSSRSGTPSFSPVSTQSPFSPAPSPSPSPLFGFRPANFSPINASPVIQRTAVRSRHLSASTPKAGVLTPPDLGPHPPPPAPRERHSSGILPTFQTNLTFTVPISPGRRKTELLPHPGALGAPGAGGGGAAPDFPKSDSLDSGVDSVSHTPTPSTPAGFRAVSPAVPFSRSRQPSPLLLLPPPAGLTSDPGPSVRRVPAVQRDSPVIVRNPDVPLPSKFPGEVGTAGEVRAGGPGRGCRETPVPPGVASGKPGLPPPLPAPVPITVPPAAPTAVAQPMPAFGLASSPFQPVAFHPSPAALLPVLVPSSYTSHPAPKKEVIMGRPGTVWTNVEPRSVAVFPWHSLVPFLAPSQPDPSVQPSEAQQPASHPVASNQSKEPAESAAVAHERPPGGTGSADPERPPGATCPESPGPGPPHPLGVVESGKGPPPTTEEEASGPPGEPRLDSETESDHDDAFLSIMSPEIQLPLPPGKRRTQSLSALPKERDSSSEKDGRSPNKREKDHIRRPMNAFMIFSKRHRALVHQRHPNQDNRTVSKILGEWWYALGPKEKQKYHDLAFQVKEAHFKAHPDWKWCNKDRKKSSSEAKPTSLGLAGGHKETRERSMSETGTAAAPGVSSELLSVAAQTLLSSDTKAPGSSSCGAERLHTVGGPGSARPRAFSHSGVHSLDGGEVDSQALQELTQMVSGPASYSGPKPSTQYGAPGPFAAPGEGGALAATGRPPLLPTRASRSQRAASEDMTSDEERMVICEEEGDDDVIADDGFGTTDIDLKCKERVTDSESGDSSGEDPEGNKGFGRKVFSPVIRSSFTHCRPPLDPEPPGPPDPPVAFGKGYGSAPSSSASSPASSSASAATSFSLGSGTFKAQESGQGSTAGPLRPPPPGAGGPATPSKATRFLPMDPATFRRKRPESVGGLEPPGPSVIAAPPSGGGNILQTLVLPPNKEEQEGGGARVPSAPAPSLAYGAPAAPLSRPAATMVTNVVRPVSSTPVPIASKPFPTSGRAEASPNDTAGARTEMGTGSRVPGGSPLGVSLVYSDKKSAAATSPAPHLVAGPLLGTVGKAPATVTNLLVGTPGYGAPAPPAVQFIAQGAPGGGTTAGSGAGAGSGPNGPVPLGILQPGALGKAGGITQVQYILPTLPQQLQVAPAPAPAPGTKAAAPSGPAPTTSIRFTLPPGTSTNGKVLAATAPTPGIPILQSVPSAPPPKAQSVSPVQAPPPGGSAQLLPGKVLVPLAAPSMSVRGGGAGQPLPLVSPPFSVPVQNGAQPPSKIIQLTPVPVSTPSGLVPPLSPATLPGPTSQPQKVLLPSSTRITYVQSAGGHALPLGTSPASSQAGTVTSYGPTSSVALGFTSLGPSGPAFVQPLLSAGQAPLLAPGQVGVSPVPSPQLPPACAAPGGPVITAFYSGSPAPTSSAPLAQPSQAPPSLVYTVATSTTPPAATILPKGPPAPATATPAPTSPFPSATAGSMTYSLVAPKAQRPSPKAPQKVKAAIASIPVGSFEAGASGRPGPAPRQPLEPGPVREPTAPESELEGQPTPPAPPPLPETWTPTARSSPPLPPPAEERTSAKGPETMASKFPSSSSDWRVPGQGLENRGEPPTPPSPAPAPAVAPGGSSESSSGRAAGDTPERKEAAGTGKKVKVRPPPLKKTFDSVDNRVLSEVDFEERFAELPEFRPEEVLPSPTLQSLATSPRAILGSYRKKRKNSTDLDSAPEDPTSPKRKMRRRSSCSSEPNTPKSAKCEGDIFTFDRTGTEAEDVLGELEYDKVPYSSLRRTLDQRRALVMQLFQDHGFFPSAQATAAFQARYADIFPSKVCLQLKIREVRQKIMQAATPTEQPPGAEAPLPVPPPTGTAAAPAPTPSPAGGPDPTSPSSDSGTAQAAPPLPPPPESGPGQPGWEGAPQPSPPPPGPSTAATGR
UniProt Q99627: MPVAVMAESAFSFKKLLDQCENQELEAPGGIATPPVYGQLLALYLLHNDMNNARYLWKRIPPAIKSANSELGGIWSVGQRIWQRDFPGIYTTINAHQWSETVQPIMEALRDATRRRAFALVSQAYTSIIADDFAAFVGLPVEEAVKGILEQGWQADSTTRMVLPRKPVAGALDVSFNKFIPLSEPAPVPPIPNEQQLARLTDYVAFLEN
UniProt P31146: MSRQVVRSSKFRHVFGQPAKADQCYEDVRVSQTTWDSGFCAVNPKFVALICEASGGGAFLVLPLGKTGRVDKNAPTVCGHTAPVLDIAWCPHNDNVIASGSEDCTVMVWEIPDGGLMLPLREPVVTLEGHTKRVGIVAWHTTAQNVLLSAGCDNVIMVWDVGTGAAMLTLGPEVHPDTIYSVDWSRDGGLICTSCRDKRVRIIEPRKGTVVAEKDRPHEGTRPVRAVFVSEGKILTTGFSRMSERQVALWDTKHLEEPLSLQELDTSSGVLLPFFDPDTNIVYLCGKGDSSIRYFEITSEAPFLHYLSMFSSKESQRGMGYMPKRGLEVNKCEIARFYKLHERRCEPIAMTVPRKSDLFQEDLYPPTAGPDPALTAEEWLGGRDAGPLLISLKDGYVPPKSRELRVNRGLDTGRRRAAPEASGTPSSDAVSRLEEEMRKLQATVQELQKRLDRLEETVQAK
UniProt Q6IPU0: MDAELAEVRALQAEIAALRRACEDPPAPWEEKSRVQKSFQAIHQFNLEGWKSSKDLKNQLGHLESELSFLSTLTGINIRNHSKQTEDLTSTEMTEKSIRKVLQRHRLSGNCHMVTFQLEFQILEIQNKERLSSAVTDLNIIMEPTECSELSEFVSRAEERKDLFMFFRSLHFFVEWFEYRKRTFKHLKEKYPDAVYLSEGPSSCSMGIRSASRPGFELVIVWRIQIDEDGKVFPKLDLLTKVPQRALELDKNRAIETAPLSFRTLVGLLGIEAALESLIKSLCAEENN
UniProt Q5TA45, whole entry: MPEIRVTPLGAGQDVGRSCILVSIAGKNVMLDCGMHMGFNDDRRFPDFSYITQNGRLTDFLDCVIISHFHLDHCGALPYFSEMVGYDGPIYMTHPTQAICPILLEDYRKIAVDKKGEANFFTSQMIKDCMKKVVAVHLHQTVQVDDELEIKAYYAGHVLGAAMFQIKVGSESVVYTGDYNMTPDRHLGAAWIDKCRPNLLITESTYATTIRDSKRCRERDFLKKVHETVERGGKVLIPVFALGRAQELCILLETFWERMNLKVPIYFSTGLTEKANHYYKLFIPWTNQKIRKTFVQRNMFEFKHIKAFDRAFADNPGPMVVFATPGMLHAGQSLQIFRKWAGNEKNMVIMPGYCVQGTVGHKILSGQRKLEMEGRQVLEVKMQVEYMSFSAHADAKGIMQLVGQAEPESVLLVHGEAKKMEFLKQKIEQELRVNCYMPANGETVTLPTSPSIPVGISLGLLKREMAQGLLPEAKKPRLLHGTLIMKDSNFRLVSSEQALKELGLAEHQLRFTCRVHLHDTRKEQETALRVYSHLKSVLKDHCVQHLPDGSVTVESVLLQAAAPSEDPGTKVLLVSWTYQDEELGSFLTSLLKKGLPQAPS
UniProt Q99653: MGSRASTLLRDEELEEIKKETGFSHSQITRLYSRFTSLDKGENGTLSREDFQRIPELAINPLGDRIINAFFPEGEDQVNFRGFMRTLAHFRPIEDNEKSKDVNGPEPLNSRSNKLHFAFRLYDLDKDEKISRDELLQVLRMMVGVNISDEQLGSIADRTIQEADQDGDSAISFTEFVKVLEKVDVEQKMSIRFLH
UniProt Q9NPF2: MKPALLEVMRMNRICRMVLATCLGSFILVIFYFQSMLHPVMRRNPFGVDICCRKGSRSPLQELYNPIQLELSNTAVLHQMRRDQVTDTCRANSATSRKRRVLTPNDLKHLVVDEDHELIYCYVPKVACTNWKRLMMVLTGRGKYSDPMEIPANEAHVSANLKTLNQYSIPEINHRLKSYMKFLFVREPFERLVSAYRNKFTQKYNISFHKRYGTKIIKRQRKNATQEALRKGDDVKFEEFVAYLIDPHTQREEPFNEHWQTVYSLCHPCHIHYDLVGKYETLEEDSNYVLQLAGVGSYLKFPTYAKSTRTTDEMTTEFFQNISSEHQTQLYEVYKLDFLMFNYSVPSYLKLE
UniProt P21964: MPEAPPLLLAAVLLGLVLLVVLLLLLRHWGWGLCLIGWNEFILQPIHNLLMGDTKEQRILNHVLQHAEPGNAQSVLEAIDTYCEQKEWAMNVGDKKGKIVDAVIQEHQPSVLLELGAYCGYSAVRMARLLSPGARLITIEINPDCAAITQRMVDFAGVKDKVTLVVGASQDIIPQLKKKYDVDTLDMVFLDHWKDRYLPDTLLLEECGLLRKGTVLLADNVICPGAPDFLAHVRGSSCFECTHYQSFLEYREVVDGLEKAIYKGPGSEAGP
UniProt Q9NXV6: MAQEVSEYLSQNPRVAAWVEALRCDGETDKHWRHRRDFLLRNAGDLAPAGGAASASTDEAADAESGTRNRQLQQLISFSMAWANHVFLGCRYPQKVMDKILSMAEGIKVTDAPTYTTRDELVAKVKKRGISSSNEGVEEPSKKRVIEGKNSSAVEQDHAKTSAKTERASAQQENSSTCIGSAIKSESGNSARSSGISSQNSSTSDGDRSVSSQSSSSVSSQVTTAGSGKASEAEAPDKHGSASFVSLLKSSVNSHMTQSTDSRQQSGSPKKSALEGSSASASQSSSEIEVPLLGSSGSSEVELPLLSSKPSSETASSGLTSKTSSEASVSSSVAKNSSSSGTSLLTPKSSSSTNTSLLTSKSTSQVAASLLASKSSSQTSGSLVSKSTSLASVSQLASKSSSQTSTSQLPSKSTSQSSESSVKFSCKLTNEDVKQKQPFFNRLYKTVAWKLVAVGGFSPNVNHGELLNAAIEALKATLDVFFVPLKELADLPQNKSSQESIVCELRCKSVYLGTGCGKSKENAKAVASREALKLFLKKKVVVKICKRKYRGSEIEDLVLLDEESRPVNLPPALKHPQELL
UniProt Q01151: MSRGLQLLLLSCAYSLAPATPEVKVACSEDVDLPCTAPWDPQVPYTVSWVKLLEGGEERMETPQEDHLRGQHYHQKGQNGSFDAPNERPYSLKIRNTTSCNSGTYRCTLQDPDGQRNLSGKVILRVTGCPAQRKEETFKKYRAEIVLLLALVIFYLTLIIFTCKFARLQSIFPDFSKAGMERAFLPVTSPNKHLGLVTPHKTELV
UniProt Q9P0S2: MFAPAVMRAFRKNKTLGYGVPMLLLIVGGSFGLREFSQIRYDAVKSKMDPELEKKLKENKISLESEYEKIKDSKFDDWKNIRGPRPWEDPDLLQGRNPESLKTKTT

The list shows a part of the results.

Compound in the assay: COc1ccc(Cn2ccc3cc(C)c(C(=O)NO)cc32)cc1
Description: dose-dependent thermal stabilisation call (2D-TPP, DLPTP, 10% FDR) (binary (1 = stabilised)); higher = stabilised by the compound. The settings on record: system: HL-60 intact cells; concentration range 0.04-10 µM. Here is the method:
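2D thermal proteome profiling in intact HL-60 cells treated with BRD-3811 (0, 0.04, 0.29, 2, 10 uM) for 90 min at 37 C, then heated 3 min at one of 12 temperatures (42-63.9 C). Soluble protein was quantified by TMT10 MS. The value is the DLPTP call of the paper: dose-dependent thermal stabilisation over all temperatures at 10% FDR (F-test of a dose-response against a flat model); one experiment, one call per tested protein.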
As for CD63 (UniProt P08962), the “dose-dependent thermal stabilisation call” value was inactive: 0. On to CHEK1 (UniProt O14757), for which the “dose-dependent thermal stabilisation call” value was inactive: 0. With CPT2 (UniProt P23786), the “dose-dependent thermal stabilisation call” value is inactive: 0. In the case of CHAF1A (UniProt Q13111), the “dose-dependent thermal stabilisation call” value was inactive: 0. As for COX5B (UniProt P10606), the figure is inactive: 0; as for CLN5 (UniProt O75503), inactive: 0; as for CEP110, inactive: 0.

Take CIB1 (UniProt Q99828): the “dose-dependent thermal stabilisation call” value is inactive: 0. For CPT1A (UniProt P50416), the “dose-dependent thermal stabilisation call” value is inactive: 0. Regarding CIC (UniProt Q96RK0), the “dose-dependent thermal stabilisation call” value is inactive: 0.

Take CLSTN1 (UniProt O94985): the “dose-dependent thermal stabilisation call” value is inactive: 0. In the case of CETN2 (UniProt P41208), the “dose-dependent thermal stabilisation call” value was inactive: 0. The figure for COPS8 (UniProt Q99627) is inactive: 0. Consider CREB1 (UniProt P16220), for which the “dose-dependent thermal stabilisation call” value is inactive: 0. Turning to CLCC1 (UniProt Q96S66), the “dose-dependent thermal stabilisation call” value was inactive: 0. On to CORO1A (UniProt P31146), for which the “dose-dependent thermal stabilisation call” value is inactive: 0. Take CDYL (UniProt Q9Y232): the “dose-dependent thermal stabilisation call” value is inactive: 0. With COASY (UniProt Q13057), the “dose-dependent thermal stabilisation call” value is inactive: 0. In the case of CRYL1 (UniProt Q9Y2S2), the “dose-dependent thermal stabilisation call” value is inactive: 0.

In the case of CEP78 (UniProt Q5JTW2), the “dose-dependent thermal stabilisation call” value is inactive: 0.

Take CENPP (UniProt Q6IPU0): the “dose-dependent thermal stabilisation call” value is inactive: 0. With CEP97 (UniProt Q8IW35), the “dose-dependent thermal stabilisation call” value was inactive: 0.

For CPSF3L (UniProt Q5TA45), the “dose-dependent thermal stabilisation call” value is inactive: 0. With CDIPT (UniProt O14735), the “dose-dependent thermal stabilisation call” value was inactive: 0.

For CDK2 (UniProt P24941), the “dose-dependent thermal stabilisation call” value was inactive: 0. Turning to COG4 (UniProt Q9H9E3), the “dose-dependent thermal stabilisation call” value was inactive: 0. On to CHP (UniProt Q99653), for which the “dose-dependent thermal stabilisation call” value is inactive: 0.

Consider CHST11 (UniProt Q9NPF2), for which the “dose-dependent thermal stabilisation call” value is inactive: 0. The figure for CLTA (UniProt P09496) is inactive: 0; for CHCHD10 (UniProt Q8WYQ3) it is inactive: 0; for COMT (UniProt P21964) it is inactive: 0. Turning to CLC (UniProt Q05315), the “dose-dependent thermal stabilisation call” value is inactive: 0. As to CDKN2AIP (UniProt Q9NXV6), the “dose-dependent thermal stabilisation call” value is inactive: 0. As to CD83 (UniProt Q01151), the “dose-dependent thermal stabilisation call” value is inactive: 0. Turning to COX16 (UniProt Q9P0S2), the “dose-dependent thermal stabilisation call” value is inactive: 0. The figure for CLP1 (UniProt Q92989) is inactive: 0.
